Measurements taken from the supplement of paper PMC11732987, “Enantioselective OTUD7B fragment discovery through chemoproteomics screening and high-throughput optimisation” (Communications Chemistry, 2025).
The list shows a part of the results. The data scatter; read single values as rough.

Protein sequences, listed by entry. Tags and fused reporters are not part of them. Lines headed by an entry give the natural chain unless they say otherwise; changes in a name come on top. Residues count along the entry.
UniProt Q5H9R7, 822-843: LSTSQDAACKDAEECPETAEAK
UniProt Q9HCU5: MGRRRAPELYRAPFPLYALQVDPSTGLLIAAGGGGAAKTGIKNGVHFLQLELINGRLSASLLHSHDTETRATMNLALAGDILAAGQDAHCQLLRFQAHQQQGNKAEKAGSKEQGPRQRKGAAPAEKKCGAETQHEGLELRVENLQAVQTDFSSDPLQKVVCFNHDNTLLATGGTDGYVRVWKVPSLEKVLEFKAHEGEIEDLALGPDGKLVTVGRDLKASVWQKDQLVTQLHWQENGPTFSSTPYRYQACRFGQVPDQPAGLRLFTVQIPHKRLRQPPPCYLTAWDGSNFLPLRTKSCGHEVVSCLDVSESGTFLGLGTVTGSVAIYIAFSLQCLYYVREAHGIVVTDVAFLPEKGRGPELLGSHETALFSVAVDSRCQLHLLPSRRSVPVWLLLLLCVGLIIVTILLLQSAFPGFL
UniProt P78527, whole entry, looked up: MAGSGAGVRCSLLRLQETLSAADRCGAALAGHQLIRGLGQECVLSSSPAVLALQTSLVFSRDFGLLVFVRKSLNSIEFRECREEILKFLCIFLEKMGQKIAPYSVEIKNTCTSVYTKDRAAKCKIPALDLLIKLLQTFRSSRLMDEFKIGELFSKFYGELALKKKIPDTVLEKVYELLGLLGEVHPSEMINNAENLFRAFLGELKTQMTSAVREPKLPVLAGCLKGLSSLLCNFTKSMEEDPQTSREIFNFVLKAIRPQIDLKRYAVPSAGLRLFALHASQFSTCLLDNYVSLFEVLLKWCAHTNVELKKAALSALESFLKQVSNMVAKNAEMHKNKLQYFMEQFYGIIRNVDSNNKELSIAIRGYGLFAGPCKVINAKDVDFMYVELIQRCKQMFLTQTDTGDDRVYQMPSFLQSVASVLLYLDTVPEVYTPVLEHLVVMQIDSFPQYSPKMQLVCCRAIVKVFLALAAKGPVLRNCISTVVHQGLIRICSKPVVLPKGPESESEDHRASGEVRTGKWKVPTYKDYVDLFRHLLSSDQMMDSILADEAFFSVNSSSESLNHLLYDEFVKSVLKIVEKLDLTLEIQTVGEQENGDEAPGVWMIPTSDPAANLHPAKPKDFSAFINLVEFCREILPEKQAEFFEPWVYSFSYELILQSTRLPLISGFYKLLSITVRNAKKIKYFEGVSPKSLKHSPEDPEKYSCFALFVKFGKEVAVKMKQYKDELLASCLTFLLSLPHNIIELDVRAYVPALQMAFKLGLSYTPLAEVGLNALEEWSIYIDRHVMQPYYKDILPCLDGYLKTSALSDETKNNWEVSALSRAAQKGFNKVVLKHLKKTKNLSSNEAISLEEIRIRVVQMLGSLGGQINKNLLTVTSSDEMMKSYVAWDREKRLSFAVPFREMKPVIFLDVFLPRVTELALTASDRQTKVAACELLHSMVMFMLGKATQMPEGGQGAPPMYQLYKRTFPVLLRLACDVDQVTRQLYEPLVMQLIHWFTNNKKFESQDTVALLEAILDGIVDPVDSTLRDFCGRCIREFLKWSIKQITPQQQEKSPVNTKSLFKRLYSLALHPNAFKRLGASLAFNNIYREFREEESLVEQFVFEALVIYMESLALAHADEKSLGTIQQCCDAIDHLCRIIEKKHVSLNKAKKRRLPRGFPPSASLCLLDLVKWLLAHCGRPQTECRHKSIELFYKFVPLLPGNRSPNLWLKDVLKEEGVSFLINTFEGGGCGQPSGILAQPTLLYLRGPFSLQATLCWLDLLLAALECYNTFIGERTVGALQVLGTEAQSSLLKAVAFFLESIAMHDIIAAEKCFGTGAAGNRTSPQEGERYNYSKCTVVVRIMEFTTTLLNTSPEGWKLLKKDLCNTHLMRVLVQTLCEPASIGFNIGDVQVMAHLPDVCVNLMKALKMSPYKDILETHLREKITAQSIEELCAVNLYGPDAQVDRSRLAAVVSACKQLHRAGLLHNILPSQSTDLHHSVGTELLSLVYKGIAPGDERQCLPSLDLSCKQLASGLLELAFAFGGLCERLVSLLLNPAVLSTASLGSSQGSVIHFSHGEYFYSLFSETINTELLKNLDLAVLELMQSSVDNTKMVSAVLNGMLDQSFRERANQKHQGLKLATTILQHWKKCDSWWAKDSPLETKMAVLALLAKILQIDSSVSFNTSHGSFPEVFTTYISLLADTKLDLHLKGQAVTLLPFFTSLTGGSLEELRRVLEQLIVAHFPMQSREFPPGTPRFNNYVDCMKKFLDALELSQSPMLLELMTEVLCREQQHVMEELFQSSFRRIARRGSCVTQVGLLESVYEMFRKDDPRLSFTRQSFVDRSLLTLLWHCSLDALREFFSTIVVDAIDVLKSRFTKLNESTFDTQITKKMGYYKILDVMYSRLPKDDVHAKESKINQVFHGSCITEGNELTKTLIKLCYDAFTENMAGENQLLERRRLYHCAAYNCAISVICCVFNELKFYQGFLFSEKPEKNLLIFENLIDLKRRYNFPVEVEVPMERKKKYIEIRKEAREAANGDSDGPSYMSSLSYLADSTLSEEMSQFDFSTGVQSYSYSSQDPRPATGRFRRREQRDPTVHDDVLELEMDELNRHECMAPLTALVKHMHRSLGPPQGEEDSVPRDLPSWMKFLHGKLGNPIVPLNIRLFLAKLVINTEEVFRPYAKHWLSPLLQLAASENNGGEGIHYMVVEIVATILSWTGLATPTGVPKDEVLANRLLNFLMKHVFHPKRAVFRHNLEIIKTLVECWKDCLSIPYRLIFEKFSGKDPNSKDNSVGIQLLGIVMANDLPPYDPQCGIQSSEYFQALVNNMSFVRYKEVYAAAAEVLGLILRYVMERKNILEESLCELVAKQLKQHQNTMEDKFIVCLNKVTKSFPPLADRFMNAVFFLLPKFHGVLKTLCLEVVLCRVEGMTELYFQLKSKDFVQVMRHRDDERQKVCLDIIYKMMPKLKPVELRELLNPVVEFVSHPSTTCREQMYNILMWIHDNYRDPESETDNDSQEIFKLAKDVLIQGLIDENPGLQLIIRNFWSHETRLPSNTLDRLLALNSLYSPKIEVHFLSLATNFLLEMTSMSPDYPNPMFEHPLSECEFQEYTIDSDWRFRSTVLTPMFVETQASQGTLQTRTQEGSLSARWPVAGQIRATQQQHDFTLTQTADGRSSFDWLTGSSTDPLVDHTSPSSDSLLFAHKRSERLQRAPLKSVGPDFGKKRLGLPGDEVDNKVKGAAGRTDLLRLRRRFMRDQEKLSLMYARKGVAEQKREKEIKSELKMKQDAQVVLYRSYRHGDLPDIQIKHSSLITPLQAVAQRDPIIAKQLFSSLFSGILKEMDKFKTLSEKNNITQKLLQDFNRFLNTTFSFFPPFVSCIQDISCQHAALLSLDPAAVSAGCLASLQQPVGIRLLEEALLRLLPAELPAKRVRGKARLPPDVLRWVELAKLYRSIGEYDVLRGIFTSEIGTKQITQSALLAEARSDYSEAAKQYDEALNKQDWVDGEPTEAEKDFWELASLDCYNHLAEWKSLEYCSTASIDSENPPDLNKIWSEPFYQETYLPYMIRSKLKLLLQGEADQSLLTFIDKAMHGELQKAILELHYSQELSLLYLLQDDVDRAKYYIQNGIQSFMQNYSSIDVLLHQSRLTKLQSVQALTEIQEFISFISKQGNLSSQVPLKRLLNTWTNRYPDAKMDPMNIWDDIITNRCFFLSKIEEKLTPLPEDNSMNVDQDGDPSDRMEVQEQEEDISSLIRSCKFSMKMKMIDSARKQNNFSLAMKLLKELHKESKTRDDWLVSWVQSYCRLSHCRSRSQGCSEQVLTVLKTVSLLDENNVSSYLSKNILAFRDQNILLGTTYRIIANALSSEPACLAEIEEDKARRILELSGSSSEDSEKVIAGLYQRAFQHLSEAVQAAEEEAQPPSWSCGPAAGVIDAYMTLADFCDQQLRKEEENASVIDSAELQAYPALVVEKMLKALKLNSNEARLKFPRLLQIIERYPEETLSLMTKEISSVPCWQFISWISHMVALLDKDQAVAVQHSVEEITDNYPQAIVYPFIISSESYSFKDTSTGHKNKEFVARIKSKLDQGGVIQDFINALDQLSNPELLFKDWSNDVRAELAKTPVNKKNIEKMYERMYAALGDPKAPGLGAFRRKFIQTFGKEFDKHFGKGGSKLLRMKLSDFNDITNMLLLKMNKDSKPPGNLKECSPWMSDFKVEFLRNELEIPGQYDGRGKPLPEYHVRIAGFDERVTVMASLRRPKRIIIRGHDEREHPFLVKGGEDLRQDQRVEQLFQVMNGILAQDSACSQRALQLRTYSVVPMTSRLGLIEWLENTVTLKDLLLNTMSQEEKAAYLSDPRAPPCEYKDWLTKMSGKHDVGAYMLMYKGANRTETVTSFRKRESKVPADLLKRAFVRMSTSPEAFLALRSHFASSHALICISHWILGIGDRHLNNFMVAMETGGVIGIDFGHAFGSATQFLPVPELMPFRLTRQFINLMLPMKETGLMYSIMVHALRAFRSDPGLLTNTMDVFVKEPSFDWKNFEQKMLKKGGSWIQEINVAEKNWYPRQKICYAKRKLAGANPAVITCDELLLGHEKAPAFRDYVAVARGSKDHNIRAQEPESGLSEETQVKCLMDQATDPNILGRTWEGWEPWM
UniProt O75864: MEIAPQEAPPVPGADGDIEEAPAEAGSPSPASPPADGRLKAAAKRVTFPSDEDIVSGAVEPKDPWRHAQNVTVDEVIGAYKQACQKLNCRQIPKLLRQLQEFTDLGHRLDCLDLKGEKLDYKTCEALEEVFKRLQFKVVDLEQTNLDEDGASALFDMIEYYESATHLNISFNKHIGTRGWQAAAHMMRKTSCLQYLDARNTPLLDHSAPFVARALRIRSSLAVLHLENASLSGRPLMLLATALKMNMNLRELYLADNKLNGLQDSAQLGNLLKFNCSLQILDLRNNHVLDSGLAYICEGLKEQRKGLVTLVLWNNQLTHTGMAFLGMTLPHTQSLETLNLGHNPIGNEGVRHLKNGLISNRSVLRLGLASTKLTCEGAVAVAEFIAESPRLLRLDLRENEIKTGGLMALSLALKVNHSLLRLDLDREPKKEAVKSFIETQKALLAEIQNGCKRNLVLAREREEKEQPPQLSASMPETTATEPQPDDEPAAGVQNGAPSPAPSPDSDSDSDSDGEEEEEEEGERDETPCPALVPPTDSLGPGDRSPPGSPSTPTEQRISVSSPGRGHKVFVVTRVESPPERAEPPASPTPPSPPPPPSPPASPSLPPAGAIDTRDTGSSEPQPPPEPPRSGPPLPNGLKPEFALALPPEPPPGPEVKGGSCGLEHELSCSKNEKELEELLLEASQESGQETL
UniProt Q9NW08: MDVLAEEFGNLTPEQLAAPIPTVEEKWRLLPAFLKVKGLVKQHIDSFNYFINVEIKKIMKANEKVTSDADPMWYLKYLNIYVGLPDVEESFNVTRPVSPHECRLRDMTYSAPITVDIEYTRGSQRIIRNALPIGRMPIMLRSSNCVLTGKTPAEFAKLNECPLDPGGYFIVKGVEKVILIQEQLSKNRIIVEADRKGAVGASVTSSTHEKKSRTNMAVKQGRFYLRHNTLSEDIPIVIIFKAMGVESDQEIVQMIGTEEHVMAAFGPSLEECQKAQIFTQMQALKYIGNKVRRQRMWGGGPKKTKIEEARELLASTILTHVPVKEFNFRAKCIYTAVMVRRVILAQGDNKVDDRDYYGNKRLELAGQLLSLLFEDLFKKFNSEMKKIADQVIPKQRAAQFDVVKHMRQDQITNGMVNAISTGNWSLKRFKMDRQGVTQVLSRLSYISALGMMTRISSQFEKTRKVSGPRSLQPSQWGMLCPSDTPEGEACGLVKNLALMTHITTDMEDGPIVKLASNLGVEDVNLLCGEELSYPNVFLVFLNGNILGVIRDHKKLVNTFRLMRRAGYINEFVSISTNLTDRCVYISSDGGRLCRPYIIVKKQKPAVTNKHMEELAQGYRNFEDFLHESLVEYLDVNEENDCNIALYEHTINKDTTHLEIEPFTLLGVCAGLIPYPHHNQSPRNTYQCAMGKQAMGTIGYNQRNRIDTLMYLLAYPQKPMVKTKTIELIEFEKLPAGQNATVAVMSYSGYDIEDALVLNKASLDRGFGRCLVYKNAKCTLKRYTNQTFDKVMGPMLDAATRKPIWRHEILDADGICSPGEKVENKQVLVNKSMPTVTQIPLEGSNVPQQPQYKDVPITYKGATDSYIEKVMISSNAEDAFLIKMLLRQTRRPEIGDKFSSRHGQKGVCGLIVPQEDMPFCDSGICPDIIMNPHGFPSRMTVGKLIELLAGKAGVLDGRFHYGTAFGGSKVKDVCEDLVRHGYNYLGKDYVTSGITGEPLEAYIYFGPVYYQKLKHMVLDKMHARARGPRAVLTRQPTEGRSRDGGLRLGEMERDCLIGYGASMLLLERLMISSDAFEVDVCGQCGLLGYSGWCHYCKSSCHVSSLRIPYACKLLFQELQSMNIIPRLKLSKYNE
UniProt Q96CD2, 171-190: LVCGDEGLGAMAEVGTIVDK

Compound: ClCC(=O)N[C@@H]1CCCc2ccccc12
Assay: log2 mean competition ratio of IA-DTB cysteine labelling (DMSO/compound) (log2 ratio); higher = stronger cysteine engagement by compound
Conditions: 50 µM; treatment time: 4 h; cell line lysate: HEK293T
Experimental: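 IA-DTB competitive cysteine chemoproteomics in HEK293T RIPA lysate. Lysates were treated with compound 29 or 30 at 50 or 200 µM for 4 h, then IA-DTB (500 µM, 1 h), trypsin-digested, NeutrAvidin-enriched and analysed by diaPASEF. Competition ratio = intensity DMSO / intensity compound (n=4 treated, n=64 DMSO); binding: mean log2 CR ≥ 1 and p ≤ 0.05 plus QC filters. Target is the cysteine site.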

Q: For “PPP6R3_(C830,C830,C836,C836) (UniProt Q5H9R7)”, which “log2 mean competition ratio” value is on record?
A: -0.413

Q: POLR2G C38 (UniProt P62487) was tested. Which “log2 mean competition ratio” value did it give?
A: -0.0862

Q: Which “log2 mean competition ratio” value does the source give for PPP2R5E C121 (UniProt Q16537) here?
A: 0.0465

Q: How did the “log2 mean competition ratio” value turn out when PPP4C C266 (UniProt P60510) was run?
A: 0.309

Q: With POLR3A C883 (UniProt O14802) as the target, how does the “log2 mean competition ratio” value read?
A: 0.394

Q: With PRKRA C106 (UniProt O75569) as the target, how does the “log2 mean competition ratio” value read?
A: -0.28

Q: For POLR2B C357 (UniProt P30876), which “log2 mean competition ratio” value is on record?
A: -0.17

Q: With PREB C128 (UniProt Q9HCU5) as the target, how does the “log2 mean competition ratio” value read?
A: 0.413

Q: With PRKDC C491 (UniProt P78527) as the target, how does the “log2 mean competition ratio” value read?
A: 0.124

Q: With PRKDC C1742 (UniProt P78527) as the target, how does the “log2 mean competition ratio” value read?
A: 0.0695

Q: Which “log2 mean competition ratio” value does the source give for PPP1R37 C124 (UniProt O75864) here?
A: 0.0367

Q: With PRPF19 C114 (UniProt Q9UMS4) as the target, how does the “log2 mean competition ratio” value read?
A: -0.0813

Q: For PPIL4 C426 (UniProt Q8WUA2), which “log2 mean competition ratio” value is on record?
A: -0.0576

Q: POLR3B C145 (UniProt Q9NW08) was tested. Which “log2 mean competition ratio” value did it give?
A: 0.0329

Q: For PREP C25, which “log2 mean competition ratio” value is on record?
A: 0.216

Q: PPARGC1B C316 (UniProt Q86YN6) was tested. Which “log2 mean competition ratio” value did it give?
A: 0.314

Q: Which “log2 mean competition ratio” value does the source give for PORCN C375 (UniProt Q9H237) here?
A: 0.467

Q: PPM1E C4 (UniProt Q8WY54) was tested. Which “log2 mean competition ratio” value did it give?
A: 0.143

Q: How did the “log2 mean competition ratio” value turn out when PPCDC C173 (UniProt Q96CD2) was run?
A: -0.127

Q: How did the “log2 mean competition ratio” value turn out when PRR12 C417 (UniProt Q9ULL5) was run?
A: -0.00453

Q: With POLR3B C973 (UniProt Q9NW08) as the target, how does the “log2 mean competition ratio” value read?
A: 0.0161

Same assay, conditions: 200 µM; treatment time: 4 h; cell line lysate: HEK293T

Q: Which “log2 mean competition ratio” value does the source give for “PPP6R3_(C830,C830,C836,C836) (UniProt Q5H9R7)” here?
A: 0.232

Q: With POLR2G C38 (UniProt P62487) as the target, how does the “log2 mean competition ratio” value read?
A: -0.0847

Q: Which “log2 mean competition ratio” value does the source give for PPP2R5E C121 (UniProt Q16537) here?
A: 0.112

Q: For PPP4C C266 (UniProt P60510), which “log2 mean competition ratio” value is on record?
A: -0.133

Q: How did the “log2 mean competition ratio” value turn out when PRKRA C106 (UniProt O75569) was run?
A: 0.0674

Q: Which “log2 mean competition ratio” value does the source give for POLR2B C357 (UniProt P30876) here?
A: 0.0589

Q: With PREB C128 (UniProt Q9HCU5) as the target, how does the “log2 mean competition ratio” value read?
A: 0.101

Q: How did the “log2 mean competition ratio” value turn out when PRKDC C491 (UniProt P78527) was run?
A: -0.325

Q: PRKDC C1742 (UniProt P78527) was tested. Which “log2 mean competition ratio” value did it give?
A: -0.0515

Q: How did the “log2 mean competition ratio” value turn out when PPP1R37 C124 (UniProt O75864) was run?
A: 0.393

Q: Which “log2 mean competition ratio” value does the source give for PRPF19 C114 (UniProt Q9UMS4) here?
A: 0.212

Q: Which “log2 mean competition ratio” value does the source give for PPIL4 C426 (UniProt Q8WUA2) here?
A: -0.0479

Q: For POLR3B C145 (UniProt Q9NW08), which “log2 mean competition ratio” value is on record?
A: -0.201

Q: How did the “log2 mean competition ratio” value turn out when PREP C25 was run?
A: -0.169

Q: Which “log2 mean competition ratio” value does the source give for PPARGC1B C316 (UniProt Q86YN6) here?
A: 0.185

Q: For PORCN C375 (UniProt Q9H237), which “log2 mean competition ratio” value is on record?
A: 0.204

Q: With PPM1E C4 (UniProt Q8WY54) as the target, how does the “log2 mean competition ratio” value read?
A: -0.108

Q: How did the “log2 mean competition ratio” value turn out when PPCDC C173 (UniProt Q96CD2) was run?
A: -0.092

Q: PRR12 C417 (UniProt Q9ULL5) was tested. Which “log2 mean competition ratio” value did it give?
A: 0.347

Q: With POLR3B C973 (UniProt Q9NW08) as the target, how does the “log2 mean competition ratio” value read?
A: 0.123
